The results in this text go back to article PMC12448318.

Sequences of proteins named here, by UniProt entry; tags and fusion partners are left off.
UniProt Q18246: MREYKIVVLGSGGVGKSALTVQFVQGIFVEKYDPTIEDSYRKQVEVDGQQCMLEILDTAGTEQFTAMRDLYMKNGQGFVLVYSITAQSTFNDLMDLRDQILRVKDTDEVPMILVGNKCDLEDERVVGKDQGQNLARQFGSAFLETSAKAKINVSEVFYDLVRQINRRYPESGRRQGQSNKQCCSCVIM

These are yes or no findings as the source states them, for the method shown. In cells and extracts the contact can be indirect. A result given as binding can be weak or reduced; the word gives no strength.

This experiment deals with TIAM-1::mGFP (C. elegans) (UniProt O01847). The experiment is described as follows: FRET or BRET; FRET-FLIM in vivo: TIAM-1::mGFP (donor) with RAP-1::mCherry or free mCherry (acceptor) in cholinergic neurons, dorsal cord of L4 animals, 20°C; mean lifetime of mGFP. On the technique in general: BRET reads energy transfer from a luciferase to a nearby fluorophore.

With “RAP-1::mCherry (from UniProt Q18246 1-188)”, the binding entry was “binds”.
